Some of the results follow. These are further read-outs of the screen, such as a control signal, another cell line or another target. No call is given for them. Compounds called inactive in the main read-out are mostly missing here. Words in brackets tell the shape of the fitted curve; partial curves, single points and poor fits give uncertain potencies.
Assay: qHTS Assay for Modulators of Lamin A Splicing
Details: HeLa LMNA splicing GFP/RFP minigene ratio, 48 h
Summary of the method: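 S3 HeLa stable clones carrying a lamin A-EGFP splicing minigene plus DsRed2 were seeded at 600 cells/well in Opti-MEM with 2% FBS, pin-dosed and incubated 48 h at 37°C. Acumen cytometry (488 nm) gave the GFP/RFP total-intensity ratio.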

[1] = measured here: RFP viability control channel
[2] = measured here: GFP splicing reporter channel

Compound	AC50 [1]	AC50 [2]
COC(=O)/C=C1\N/C(=N\c2nc(C)cc(C)n2)N(c2ccc(C)cc2)C1=O	10 µM [rising, partial curve, poor fit]	
N#Cc1cccc(NC(=O)C2CCN(S(=O)(=O)c3ccc4c(c3)CCCN4C(=O)C3CCC3)CC2)c1		1.12 µM [rising, full curve]
CCOC(=O)c1ccc(N2C(=O)c3n[nH]c(-c4ccco4)c3C2c2cccc([N+](=O)[O-])c2)cc1 (stereo not given)	20 µM [rising, partial curve, poor fit]	
Cc1cc(N(C)C)c(C#N)c(NCc2ccccc2)n1	0.01 µM [falling, full curve, poor fit]	
CCC1=NN=C(c2ccc(F)cc2)C(c2c[nH]c3ccccc23)N1O (stereo not given)		35.5 µM [falling, single point]
CCCn1c2c(c(O)c(C(=O)Nc3ccc(OCC)cc3)c1=O)CCCC2	35.5 µM [falling, partial curve, poor fit]	
Cc1ccc2nc(N(CCCN(C)C)C(=O)c3cc4ccccc4oc3=O)sc2c1		4.47 µM [rising, full curve, poor fit]
O=C(COc1ccc(Cl)cc1)Nc1cccc(-c2ccc3nncn3n2)c1	0.01 µM [falling, full curve, poor fit]	0.0224 µM [falling, partial curve, poor fit]
Cc1cc(C)c(OCCCON2C(=O)CCC2=O)c(Br)c1	0.158 µM [rising, full curve, poor fit]	0.631 µM [rising, full curve, poor fit]
Cc1cs/c(=N\N=C\c2ccc(O)cc2)n1Cc1ccco1	17.8 µM [rising, partial curve]	
CCOC(=O)C(C)Sc1nc2c(c(-c3cccs3)c1C#N)CCC2 (stereo not given)	25.1 µM [rising, single point]	14.1 µM [rising, partial curve]
O=C(c1ccc(Br)cc1)N1CCC(c2nc3ccccc3s2)CC1	31.6 µM [falling, single point]	20 µM [falling, single point]
CC(=O)c1cc(Cc2csc(C(C)=O)c2)cs1		12.6 µM [rising, single point]
COC1=C(OC)C(=O)C(C/C=C(\C)CC/C=C(\C)CC/C=C(\C)CC/C=C(\C)CC/C=C(\C)CC/C=C(\C)CC/C=C(\C)CC/C=C(\C)CC/C=C(\C)CCC=C(C)C)=C(C)C1=O	0.0112 µM [rising, full curve, poor fit]	1.58 µM [rising, full curve]
CCn1nnc(NC(=O)c2ccc(-c3ccccc3[N+](=O)[O-])o2)n1		35.5 µM [rising, single point]
C=CCn1c(COc2ccc(OC)cc2)nnc1SCn1nnc2ccccc2c1=O	31.6 µM [rising, single point]	20 µM [rising, partial curve]
CCOC(=O)c1ccccc1NC(=O)c1cn(CC)c2nc(C)ccc2c1=O	3.98 µM [rising, full curve, poor fit]	
CCn1c(SCC(=O)Nc2nc3ccc(OC)cc3s2)nnc1-c1ccoc1C	14.1 µM [rising, single point]	
CC(C)(C)NC[C@@H](O)COc1ccccc1C1CCCC1		14.1 µM [falling, partial curve, poor fit]
CCc1cccc(Nc2c3c(nc4ncnn24)CCC3)c1		35.5 µM [rising, single point]
CC(=O)N(C)c1ccc(NC(=O)/C=C/c2ccccc2Cl)cc1	4.47 µM [rising, partial curve]	1 µM [rising, full curve]
CN(C)c1ccc(/C=N/NC(=O)CN(c2cccc(Cl)c2)S(C)(=O)=O)cc1Br	22.4 µM [rising, single point]	
CN(C)Cc1nc2ccccc2c(=O)n1Cc1nc(-c2cc3ccccc3o2)cs1	11.2 µM [rising, single point]	
CC(C)CNS(=O)(=O)c1ccc(CCC(=O)N2CCN(c3ccc(F)cc3)CC2)cc1		28.2 µM [falling, partial curve]
Fc1ccc2[nH]c3c(N4CCN(C5CCCCC5)CC4)ncnc3c2c1	10 µM [rising, partial curve, poor fit]	
Cc1nnc(SC(C)C(=O)NCC2CCCO2)n1-c1ccccc1 (stereo not given)	5.62 µM [rising, single point]	
CCCCNC(=O)c1cc(-c2ccc(F)cc2)on1	35.5 µM [falling, single point]	35.5 µM [falling, single point]

An excerpt taken from the entries so far, as a working copy:
Compound	AC50 [1]	AC50 [2]
CN(C)Cc1nc2ccccc2c(=O)n1Cc1nc(-c2cc3ccccc3o2)cs1	11.2 µM [rising, single point]	
CC(C)CNS(=O)(=O)c1ccc(CCC(=O)N2CCN(c3ccc(F)cc3)CC2)cc1		28.2 µM [falling, partial curve]
Fc1ccc2[nH]c3c(N4CCN(C5CCCCC5)CC4)ncnc3c2c1	10 µM [rising, partial curve, poor fit]	

Additional records:

Compound	AC50 [1]	AC50 [2]
COc1ccc(N2CCN(C(=O)C3CCC(Cn4c(=S)[nH]c5ccccc5c4=O)CC3)CC2)cc1 (stereo not given)	12.6 µM [rising, partial curve]	17.8 µM [rising, single point]
Cc1cc(C(=O)Nc2cccc(C(F)(F)F)c2)c2c(C)nn(-c3cccc(F)c3)c2n1	17.8 µM [rising, partial curve, poor fit]	
CSc1nc(C)cc(OCC(=O)N/N=C/c2ccccc2O)n1	7.08 µM [rising, partial curve]	
CC(=O)Nc1ccc(NC(=O)CC(C)n2ccc(C)n2)cc1 (stereo not given)	0.112 µM [falling, full curve]	0.1 µM [falling, full curve]
O=C1c2ccccc2C(=O)N1CCCCSc1nnnn1-c1ccccc1	31.6 µM [rising, single point]	20 µM [rising, single point]
COc1ccc(Cn2c(CCC(=O)O)nc3cccnc32)cc1	0.0316 µM [falling, full curve, poor fit]	
CCOc1ccc(S(=O)(=O)N/N=C(\C)c2ccc(Cl)c(Cl)c2Cl)cc1	35.5 µM [falling, single point]	35.5 µM [falling, single point]
Cc1nnc(Sc2cc(NCCO)c([N+](=O)[O-])c3nonc23)s1	35.5 µM [falling, single point]	25.1 µM [falling, single point]
Cc1nn(Cc2ccc(C(=O)N3N=C(C(F)F)CC3(O)C(F)F)o2)c(C)c1[N+](=O)[O-] (stereo not given)	8.91 µM [rising, partial curve]	
CCc1ccc(NC(=O)c2cc(S(=O)(=O)N3CCCCC3)c[nH]2)cc1	0.00447 µM [falling, full curve, poor fit]	
CCCCCCOc1ccc(C(CC(N)=O)C(=O)O)cc1 (stereo not given)	1.26 µM [falling, single point]	
O=c1oc2ccccc2c(Nc2ccccc2O)c1[N+](=O)[O-]	0.126 µM [falling, full curve, poor fit]	2.51 µM [falling, partial curve, poor fit]
Cc1ccc(C(C2C(=O)CC(C)(C)CC2=O)C2C(=O)CC(C)(C)CC2=O)s1	0.355 µM [falling, single point]	
CCOc1ccc(C(=O)NC(=S)Nc2ccccn2)cc1[N+](=O)[O-]	22.4 µM [falling, single point]	
COc1cccc(C(=O)Nc2ccc3nc(N4CCN(c5ncccn5)CC4)cc(C)c3c2)c1OC	31.6 µM [falling, single point]	35.5 µM [falling, single point]
O=c1c(Sc2ccccc2)c(C(F)(F)F)[nH]n1-c1ccccc1	15.8 µM [rising, single point]	
Cc1nc(S(=O)(=O)N(C)c2ccccc2)c(C#N)c(C)c1Cl	25.1 µM [falling, single point]	15.8 µM [falling, single point]
Cc1ccc(Nc2cc(C)nc(N3CCOCC3)n2)c(C)c1	0.01 µM [rising, full curve, poor fit]	0.316 µM [rising, full curve, poor fit]
C[C@]12CC[C@@H]3c4ccc(O)cc4CC[C@H]3[C@@H]1CCC2OC(=O)CCC1CCCC1 (stereo not given in full)	0.0355 µM [falling, full curve, poor fit]	12.6 µM [rising, partial curve, poor fit]
COc1ccc(C2C(C(=O)N3CCN(C)CC3)c3cc(OC)c(OC)cc3C(=O)N2C)cc1 (stereo not given)	0.00316 µM [falling, full curve, poor fit]	0.00316 µM [falling, full curve]
CCCCCCCC/C=C\CCCCCCCC(=O)O		3.98 µM [rising, partial curve, poor fit]
Cc1ccc(NC(=O)c2cc3c(s2)CCC3)cc1S(=O)(=O)N1CCOCC1	35.5 µM [rising, single point]	
COc1ccc(C)cc1NS(=O)(=O)c1ccc(-c2cnc(C3CC3)o2)cc1	0.141 µM [rising, full curve]	
COc1ccc2c(c1)cc(C(O)c1ccccn1)n2S(=O)(=O)c1ccccc1 (stereo not given)		35.5 µM [rising, single point]
Cc1ccc(C)c(Nc2ncnc3c2cnn3-c2ccc(F)cc2)c1	0.0126 µM [falling, full curve, poor fit]	0.891 µM [falling, partial curve, poor fit]
CC(C)(C)c1ccc(NC(=O)COC(=O)c2ccc(NS(=O)(=O)c3ccc(F)c(F)c3)cc2)cc1	35.5 µM [rising, single point]	
CCc1cc(=O)oc2cc3occ(-c4ccc(OC)c(F)c4)c3cc12	35.5 µM [falling, partial curve]	11.2 µM [falling, partial curve]
